In paper doi:10.1101/2025.04.03.647056:
Where a chain is given by its changes, count along the chain named. Read-outs that look alike come from different tables or passages of the source. These are yes or no findings as the source states them, for the method shown. Binding seen in cells or lysates may run through a third protein. Some binding calls cover weakened binding; strength is not graded here. For some of these results: Tags and fused reporters may be left off the sequences shown.

By UniProt entry, the sequences of proteins in these tests, tags left out. Residues count along the entry.
UniProt Q03173, residues 1-112: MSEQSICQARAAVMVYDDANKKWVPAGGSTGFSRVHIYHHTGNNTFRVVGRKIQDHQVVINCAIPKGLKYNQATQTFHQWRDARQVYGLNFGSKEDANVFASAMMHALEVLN
UniProt P70460, residues 1-114: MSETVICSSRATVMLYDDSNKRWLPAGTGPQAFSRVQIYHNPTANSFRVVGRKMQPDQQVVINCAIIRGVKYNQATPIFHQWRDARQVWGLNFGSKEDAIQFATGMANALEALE
UniProt Q96F07: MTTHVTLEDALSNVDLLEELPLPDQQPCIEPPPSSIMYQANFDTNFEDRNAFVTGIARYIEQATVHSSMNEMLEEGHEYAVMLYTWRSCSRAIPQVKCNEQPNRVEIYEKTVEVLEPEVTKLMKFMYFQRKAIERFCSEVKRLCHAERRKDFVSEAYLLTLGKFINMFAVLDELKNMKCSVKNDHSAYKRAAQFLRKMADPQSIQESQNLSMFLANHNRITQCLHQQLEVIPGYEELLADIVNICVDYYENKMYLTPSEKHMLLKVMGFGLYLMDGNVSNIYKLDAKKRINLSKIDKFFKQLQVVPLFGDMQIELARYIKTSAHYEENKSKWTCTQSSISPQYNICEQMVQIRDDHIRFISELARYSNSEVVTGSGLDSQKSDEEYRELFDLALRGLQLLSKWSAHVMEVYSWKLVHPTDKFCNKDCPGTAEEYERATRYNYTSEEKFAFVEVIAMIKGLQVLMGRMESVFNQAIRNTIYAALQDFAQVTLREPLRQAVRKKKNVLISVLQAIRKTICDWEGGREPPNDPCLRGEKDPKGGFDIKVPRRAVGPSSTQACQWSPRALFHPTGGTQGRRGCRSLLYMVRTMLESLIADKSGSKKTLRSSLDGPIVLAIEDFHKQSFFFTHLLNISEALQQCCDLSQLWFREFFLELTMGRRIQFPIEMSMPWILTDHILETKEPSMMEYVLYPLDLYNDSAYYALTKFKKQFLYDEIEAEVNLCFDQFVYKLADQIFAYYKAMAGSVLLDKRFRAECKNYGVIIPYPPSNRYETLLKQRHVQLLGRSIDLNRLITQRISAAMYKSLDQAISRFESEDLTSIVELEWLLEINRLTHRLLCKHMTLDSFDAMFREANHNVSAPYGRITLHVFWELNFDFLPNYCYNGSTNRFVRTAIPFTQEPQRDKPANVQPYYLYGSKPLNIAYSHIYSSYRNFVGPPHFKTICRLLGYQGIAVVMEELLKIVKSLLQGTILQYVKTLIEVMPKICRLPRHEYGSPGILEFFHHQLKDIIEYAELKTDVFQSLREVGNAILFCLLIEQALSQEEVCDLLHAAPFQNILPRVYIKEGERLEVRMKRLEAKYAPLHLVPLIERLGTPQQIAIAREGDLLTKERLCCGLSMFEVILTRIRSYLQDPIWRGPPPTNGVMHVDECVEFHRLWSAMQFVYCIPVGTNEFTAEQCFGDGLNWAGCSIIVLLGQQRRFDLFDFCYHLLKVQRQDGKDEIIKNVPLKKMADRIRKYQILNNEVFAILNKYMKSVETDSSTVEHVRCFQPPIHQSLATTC
UniProt Q8BH43: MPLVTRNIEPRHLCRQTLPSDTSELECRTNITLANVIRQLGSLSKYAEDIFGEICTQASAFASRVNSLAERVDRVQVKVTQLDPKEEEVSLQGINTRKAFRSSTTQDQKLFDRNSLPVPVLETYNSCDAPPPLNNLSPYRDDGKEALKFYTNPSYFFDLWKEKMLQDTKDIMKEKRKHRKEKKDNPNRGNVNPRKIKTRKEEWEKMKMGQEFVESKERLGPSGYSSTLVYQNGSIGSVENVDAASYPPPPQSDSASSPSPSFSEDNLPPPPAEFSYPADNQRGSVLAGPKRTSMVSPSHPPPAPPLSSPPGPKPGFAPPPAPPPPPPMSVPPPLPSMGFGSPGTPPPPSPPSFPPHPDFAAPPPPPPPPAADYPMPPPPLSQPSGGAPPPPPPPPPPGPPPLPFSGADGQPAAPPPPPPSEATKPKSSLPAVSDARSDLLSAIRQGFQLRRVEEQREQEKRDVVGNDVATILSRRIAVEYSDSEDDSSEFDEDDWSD
UniProt Q9Y2A7: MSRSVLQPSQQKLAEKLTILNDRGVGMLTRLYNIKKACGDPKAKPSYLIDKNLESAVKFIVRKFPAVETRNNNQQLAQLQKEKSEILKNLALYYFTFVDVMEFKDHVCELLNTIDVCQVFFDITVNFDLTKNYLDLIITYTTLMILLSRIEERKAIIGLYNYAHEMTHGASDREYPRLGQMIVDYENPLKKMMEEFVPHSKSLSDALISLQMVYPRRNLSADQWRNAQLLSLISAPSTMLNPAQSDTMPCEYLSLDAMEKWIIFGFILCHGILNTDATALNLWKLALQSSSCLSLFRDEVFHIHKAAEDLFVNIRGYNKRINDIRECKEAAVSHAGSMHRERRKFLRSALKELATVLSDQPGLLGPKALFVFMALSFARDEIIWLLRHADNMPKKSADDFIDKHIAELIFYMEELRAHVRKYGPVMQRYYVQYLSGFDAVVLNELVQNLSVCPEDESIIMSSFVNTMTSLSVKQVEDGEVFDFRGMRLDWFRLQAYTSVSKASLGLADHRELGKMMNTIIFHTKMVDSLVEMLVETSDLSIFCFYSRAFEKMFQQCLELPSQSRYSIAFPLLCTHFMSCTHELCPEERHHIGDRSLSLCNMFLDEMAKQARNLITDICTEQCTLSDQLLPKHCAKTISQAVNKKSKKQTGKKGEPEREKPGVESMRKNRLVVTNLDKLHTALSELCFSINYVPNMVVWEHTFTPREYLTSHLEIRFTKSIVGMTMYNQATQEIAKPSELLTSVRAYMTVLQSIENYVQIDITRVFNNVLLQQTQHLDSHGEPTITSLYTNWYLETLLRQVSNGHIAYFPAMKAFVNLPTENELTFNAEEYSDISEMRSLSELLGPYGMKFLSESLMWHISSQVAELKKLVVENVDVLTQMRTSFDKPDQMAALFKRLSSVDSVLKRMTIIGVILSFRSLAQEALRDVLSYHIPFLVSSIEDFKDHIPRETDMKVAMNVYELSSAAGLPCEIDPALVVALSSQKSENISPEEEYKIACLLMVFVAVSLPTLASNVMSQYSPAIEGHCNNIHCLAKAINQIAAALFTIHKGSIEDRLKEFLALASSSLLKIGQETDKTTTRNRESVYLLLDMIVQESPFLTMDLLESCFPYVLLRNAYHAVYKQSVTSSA
UniProt Q9Y6W5: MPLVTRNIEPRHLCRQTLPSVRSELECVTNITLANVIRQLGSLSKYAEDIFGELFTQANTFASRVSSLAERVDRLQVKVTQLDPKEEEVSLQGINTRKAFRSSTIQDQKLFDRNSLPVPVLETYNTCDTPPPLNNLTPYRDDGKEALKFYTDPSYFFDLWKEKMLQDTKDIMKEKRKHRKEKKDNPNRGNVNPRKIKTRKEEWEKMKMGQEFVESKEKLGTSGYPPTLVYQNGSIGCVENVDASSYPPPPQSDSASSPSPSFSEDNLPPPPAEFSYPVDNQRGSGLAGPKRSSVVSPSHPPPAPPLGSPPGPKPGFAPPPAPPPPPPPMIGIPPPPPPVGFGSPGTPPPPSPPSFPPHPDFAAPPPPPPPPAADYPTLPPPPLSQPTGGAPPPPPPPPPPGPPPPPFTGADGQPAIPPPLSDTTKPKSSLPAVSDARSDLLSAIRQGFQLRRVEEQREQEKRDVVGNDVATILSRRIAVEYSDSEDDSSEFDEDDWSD
UniProt Q8CBW3: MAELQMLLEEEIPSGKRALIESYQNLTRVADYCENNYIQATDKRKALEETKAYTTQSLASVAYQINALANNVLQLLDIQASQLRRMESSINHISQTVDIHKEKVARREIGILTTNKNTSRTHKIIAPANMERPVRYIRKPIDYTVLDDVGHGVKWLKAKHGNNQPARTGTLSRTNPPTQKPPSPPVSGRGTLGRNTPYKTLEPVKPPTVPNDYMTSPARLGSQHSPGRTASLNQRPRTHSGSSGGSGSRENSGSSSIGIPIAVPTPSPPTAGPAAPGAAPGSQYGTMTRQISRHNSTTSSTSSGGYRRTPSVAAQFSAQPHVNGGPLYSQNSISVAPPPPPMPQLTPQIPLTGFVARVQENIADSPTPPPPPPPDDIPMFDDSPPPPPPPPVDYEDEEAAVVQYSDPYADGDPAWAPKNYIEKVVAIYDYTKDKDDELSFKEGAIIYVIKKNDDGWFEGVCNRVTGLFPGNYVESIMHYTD
UniProt Q7L576: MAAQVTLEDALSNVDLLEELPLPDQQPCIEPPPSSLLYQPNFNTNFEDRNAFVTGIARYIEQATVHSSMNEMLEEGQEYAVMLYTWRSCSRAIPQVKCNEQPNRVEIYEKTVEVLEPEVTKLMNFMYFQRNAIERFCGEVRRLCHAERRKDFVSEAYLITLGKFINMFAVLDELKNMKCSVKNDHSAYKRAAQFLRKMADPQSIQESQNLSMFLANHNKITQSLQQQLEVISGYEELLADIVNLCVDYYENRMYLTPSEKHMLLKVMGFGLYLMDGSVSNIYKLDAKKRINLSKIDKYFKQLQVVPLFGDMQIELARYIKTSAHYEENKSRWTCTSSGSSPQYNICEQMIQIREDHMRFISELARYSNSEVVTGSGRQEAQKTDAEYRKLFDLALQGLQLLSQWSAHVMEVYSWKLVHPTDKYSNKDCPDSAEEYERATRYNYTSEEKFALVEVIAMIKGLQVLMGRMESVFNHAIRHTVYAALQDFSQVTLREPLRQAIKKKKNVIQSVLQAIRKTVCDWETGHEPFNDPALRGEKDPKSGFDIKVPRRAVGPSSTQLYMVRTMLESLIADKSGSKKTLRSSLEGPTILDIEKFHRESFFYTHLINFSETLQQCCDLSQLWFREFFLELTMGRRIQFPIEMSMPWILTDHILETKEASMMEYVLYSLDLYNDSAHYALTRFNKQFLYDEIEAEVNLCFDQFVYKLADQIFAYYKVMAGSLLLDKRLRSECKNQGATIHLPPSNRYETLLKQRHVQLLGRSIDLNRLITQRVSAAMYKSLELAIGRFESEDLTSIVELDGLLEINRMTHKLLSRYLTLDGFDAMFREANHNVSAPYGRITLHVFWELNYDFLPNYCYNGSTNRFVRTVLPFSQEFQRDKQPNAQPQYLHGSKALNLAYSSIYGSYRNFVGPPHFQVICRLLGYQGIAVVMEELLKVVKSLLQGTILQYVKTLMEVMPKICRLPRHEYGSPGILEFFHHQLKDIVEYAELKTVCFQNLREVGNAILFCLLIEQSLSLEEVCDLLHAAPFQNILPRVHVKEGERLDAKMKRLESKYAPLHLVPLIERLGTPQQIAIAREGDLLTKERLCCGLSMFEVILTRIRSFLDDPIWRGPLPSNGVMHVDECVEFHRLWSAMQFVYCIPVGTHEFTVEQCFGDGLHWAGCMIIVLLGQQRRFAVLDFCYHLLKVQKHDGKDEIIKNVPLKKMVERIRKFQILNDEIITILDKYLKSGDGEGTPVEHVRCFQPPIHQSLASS

What was measured:
[1] = target: T1, NHSL3ΔSH3-EGFP (Abi SH3 domain binding site mutated) (mouse) (UniProt A2A7S8); test: pull-down
T1 sequence: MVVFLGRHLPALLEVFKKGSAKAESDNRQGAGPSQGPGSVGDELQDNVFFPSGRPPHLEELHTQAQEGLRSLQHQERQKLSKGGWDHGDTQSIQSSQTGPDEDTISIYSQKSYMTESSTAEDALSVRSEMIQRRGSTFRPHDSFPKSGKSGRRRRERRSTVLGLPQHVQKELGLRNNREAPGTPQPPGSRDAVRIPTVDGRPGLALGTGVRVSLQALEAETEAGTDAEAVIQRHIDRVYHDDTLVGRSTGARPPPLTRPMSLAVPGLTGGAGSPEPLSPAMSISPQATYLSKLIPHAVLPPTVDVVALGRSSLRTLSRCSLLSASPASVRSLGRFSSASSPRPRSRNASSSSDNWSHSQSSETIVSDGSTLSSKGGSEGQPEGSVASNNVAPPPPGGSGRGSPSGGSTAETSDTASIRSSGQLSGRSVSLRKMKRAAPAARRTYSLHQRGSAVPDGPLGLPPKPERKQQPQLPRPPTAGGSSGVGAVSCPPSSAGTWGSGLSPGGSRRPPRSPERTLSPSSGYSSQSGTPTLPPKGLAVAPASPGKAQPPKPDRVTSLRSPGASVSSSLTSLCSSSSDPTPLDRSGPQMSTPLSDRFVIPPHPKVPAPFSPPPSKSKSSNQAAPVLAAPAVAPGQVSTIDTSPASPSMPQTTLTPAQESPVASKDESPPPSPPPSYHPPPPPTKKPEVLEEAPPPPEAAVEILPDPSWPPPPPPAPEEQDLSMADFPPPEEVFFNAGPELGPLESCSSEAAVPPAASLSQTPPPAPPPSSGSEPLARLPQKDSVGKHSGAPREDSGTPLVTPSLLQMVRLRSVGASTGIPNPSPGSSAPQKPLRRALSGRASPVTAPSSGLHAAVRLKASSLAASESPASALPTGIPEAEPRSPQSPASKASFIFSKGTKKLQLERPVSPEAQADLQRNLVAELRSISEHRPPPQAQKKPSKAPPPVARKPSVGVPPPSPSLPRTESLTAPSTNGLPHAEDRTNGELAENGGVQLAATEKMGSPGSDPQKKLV

[2] = target: T1, NHSL3ΔSH3-EGFP (Abi SH3 domain binding site mutated) (mouse); test: pull-down; remark: listed apart in the source
[3] = target: T2, GST-tagged NHSL3 fragment 1 (mouse) (UniProt A2A7S8); test: pull-down
T2 sequence: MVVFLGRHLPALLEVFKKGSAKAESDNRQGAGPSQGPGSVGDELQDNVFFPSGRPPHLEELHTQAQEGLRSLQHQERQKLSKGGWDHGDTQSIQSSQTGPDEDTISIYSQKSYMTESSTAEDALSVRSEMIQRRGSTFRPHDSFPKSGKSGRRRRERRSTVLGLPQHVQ

[4] = target: NHSL3-EGFP (wild-type mouse NHSL3 isoform 1c, C-terminally tagged with EGFP) (mouse) (UniProt A2A7S8); test: co-IP
[5] = target: T3, NHSL3ΔFP4-1/2-EGFP (both EVH1 domain binding motifs mutated) (mouse) (UniProt A2A7S8); test: co-IP
T3 sequence: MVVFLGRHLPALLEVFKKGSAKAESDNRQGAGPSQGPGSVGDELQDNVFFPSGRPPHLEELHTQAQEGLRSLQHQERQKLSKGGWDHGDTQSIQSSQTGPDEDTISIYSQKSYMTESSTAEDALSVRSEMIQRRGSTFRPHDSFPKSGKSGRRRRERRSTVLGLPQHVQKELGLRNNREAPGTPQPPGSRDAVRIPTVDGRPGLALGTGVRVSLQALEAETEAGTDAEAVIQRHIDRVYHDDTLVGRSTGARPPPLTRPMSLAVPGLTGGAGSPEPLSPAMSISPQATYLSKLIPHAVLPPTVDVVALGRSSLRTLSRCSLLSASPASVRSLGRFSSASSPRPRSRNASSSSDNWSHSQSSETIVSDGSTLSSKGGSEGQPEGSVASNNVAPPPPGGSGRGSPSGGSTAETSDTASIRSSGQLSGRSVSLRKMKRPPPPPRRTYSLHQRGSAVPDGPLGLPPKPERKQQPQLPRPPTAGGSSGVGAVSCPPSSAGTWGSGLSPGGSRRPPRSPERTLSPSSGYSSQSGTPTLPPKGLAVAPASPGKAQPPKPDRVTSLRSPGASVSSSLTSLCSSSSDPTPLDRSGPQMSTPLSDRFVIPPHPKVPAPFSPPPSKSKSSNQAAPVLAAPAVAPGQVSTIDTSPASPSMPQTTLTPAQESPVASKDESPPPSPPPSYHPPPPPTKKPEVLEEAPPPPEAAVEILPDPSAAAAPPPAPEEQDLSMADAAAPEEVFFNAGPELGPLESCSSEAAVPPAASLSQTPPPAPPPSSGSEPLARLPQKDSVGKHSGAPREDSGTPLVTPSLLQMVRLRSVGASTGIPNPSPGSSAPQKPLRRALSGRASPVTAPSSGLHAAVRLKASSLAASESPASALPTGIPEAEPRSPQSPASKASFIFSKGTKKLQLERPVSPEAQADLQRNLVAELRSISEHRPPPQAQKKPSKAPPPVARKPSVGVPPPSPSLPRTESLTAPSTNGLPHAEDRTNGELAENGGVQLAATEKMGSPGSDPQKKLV

[6] = target: T1, NHSL3ΔSH3-EGFP (Abi SH3 domain binding site mutated) (mouse); test: co-IP
[7] = target: T4, NHSL3ΔSH3ΔFP4-1/2-EGFP (Abi SH3 binding site and both EVH1 binding motifs mutated) (mouse) (UniProt A2A7S8); test: co-IP
T4 sequence: T3 sequence with P436A, P437A, P439A, P440A

[8] = target: T5, GST-EVH1 domain of EVL (1-113) (mouse) (UniProt P70429); test: pull-down
T5 sequence: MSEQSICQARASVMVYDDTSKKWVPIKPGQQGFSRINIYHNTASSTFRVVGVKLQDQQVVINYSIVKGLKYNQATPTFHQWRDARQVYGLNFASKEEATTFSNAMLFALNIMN

[9] = target: GST-EVH1 domain of Mena (1-112) (mouse) (UniProt Q03173); test: pull-down
[10] = target: GST-EVH1 domain of VASP (1-114) (mouse) (UniProt P70460); test: pull-down
[11] = target: endogenous NHSL3 (mouse (endogenous in B16-F1)) (UniProt A2A7S8); test: co-IP
[12] = target: T2, GST-tagged NHSL3 fragment 1 (mouse); test: pull-down; remark: listed apart in the source
[13] = target: T1, NHSL3ΔSH3-EGFP (Abi SH3 domain binding site mutated) (mouse); test: pull-down; remark: listed apart in the source

## Myc-CYFIP2 (from UniProt Q96F07 1-1278)
[1]
  binding: binds
[2]
  binding: binds
[3]
  binding: binds
[4]
  binding: binds
[5]
  binding: binds
[6]
  binding: binds
[7]
  binding: binds

## NHSL3-EGFP (wild-type mouse NHSL3 isoform 1c, C-terminally tagged with EGFP) (from UniProt A2A7S8 1-1013)
[8]
  binding: no binding
[9]
  binding: binds
[10]
  binding: binds

## endogenous Scar/WAVE2 (from UniProt Q8BH43 1-497)
[11]
  binding: binds

## Myc-Nap1 (from UniProt Q9Y2A7 1-1128)
[12]
  binding: binds
[13]
  binding: binds
[2]
  binding: binds
[3]
  binding: binds
[4]
  binding: binds
[5]
  binding: binds
[6]
  binding: binds
[7]
  binding: binds

## Myc-Scar/WAVE2 (from UniProt Q9Y6W5 1-498)
[4]
  binding: binds
[5]
  binding: binds
[6]
  binding: binds
[7]
  binding: binds

## endogenous Abi1 (from UniProt Q8CBW3 1-481)
[11]
  binding: binds

## Myc-CYFIP1 (from UniProt Q7L576 1-1253)
[12]
  binding: binds
[1]
  binding: binds
[13]
  binding: binds
[4]
  binding: binds
